Measurements as given in PMC7819943, “Rice protein-binding microarrays: a tool to detect cis-acting elements near promoter regions in rice”.
This is one part of the list.

The chains behind the UniProt entries cited, without tags or fusion partners.
UniProt Q0JBA9, entry or part of it: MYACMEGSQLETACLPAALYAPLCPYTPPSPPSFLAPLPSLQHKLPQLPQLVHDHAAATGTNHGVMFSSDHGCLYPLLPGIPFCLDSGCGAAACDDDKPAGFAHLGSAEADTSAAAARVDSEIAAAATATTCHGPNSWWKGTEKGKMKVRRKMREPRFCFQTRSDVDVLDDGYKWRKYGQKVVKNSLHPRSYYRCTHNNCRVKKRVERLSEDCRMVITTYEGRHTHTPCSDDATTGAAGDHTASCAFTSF

The sequences below were run against OsWRKY34 (Oryza sativa, UniProt Q0JBA9 1-250) (assay: protein-binding microarray (RPBM); PBS, 2% BSA, 51.3 ng/ul salmon testes DNA, 50 uM zinc acetate, 200 nM TF, 25 C, 1 h; high values mean tight binding). Settings: protein: recombinant; tags: N-terminal polyhistidine and DsRed monomer fusion (pET32a); label: CyDye5-dUTP incorporated in the synthesized complementary strand; 3' TTTTT single-stranded linker to array surface; dsDNA, one strand shown.
How it was run: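 Transcription factors were each fused at the N-terminus to a polyhistidine tag plus DsRed and expressed in E. coli BL21-CodonPlus before Ni–NTA purification. Binding to a double-stranded custom Agilent array was carried out with 200 nM protein at 25 °C for 1 h in PBS, 2% BSA, salmon testes DNA and 50 µM zinc acetate. The binding signal is per-feature fluorescence intensity, in arbitrary units, on an Axon 4000B scanner.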

Sequence | binding signal
ATTTCGAGTTGGGACCTTCATGCAATCATGCCCCTTGTTTCGGAGTCACCTAGTGCAG | 8300 fluorescence intensity (a.u.)
TGAATCAGCTCTCTTCCCCGCGATCTCTCCTACTTTTCCTCGGAGTCACCTAGTGCAG | 8290 fluorescence intensity (a.u.)
CTATATATTTCTAGTCATTTCCAGTATCCATGCACATAAACGGAGTCACCTAGTGCAG | 9000 fluorescence intensity (a.u.)
TGTTGCCTCCTCATCCTCCACCGCTGTCCCCAGGCGACGACGGAGTCACCTAGTGCAG | 9080 fluorescence intensity (a.u.)
AACAGTCACTGACACGTGGGCTCCAGCATTACCTGTCCCCCGGAGTCACCTAGTGCAG | 8200 fluorescence intensity (a.u.)
CGGCATCTTCTCGTTCATTCTCATCCTCTTTAGCCCAAAGCGGAGTCACCTAGTGCAG | 9060 fluorescence intensity (a.u.)
CTACTTATCATCCATTTAAACATGCTACTAGTCATTCTTCCGGAGTCACCTAGTGCAG | 10200 fluorescence intensity (a.u.)
ATTAATAGATTTGTCTCGTAAATTAACCTCCATCTATTTACGGAGTCACCTAGTGCAG | 8080 fluorescence intensity (a.u.)
GTGCGTGGGGCGAAGGGAGGGGAAGAAGAAGAAGGAGAAGCGGAGTCACCTAGTGCAG | 8080 fluorescence intensity (a.u.)
ATTCTTTGCCTTCCTGTCCATATATTCTTCCATGCCTCCCCGGAGTCACCTAGTGCAG | 8710 fluorescence intensity (a.u.)
ATCAGCATTGTCTTATACGCCTTCACCCACTAGCTCAACCCGGAGTCACCTAGTGCAG | 8580 fluorescence intensity (a.u.)
TATATATATATATATATTGCGAGGATTGTTATAATAAAAGCGGAGTCACCTAGTGCAG | 8600 fluorescence intensity (a.u.)
GCTCCATGCATGCCTCCACATCTCCATGACACAAGTCAGACGGAGTCACCTAGTGCAG | 9780 fluorescence intensity (a.u.)
TGCTAACATGTGCTTCCCGTGCTGTCTATTGCTTCCACTTCGGAGTCACCTAGTGCAG | 8550 fluorescence intensity (a.u.)
TTCTTTTCCTATCATTTGATTCATCGTTAAATATATTTTTCGGAGTCACCTAGTGCAG | 8090 fluorescence intensity (a.u.)
ATCAACCGCCGCTAATACGTGCCAATCTTGCTCTTTTTGACGGAGTCACCTAGTGCAG | 8260 fluorescence intensity (a.u.)
CCCTCCGCGCGCGCATCCCGCCGTCGCCGCCGTCCCCTACCGGAGTCACCTAGTGCAG | 10900 fluorescence intensity (a.u.)
TTCCGATCAATTTTTTTCGTCCGTCGTCCGTGTTTGAATCCGGAGTCACCTAGTGCAG | 13000 fluorescence intensity (a.u.)
GCCTATTTTGGATCTTTCACACGTGTTCGCTGGGGAAACTCGGAGTCACCTAGTGCAG | 8140 fluorescence intensity (a.u.)
TACGCTGCCGTCGCTGTGGTCACTCTGCCTCACCTCACCTCGGAGTCACCTAGTGCAG | 8130 fluorescence intensity (a.u.)
GTCTTCTCGTTTTTCCCGACTTCCCTTATCCTCTCTCTCTCGGAGTCACCTAGTGCAG | 8420 fluorescence intensity (a.u.)

Sequence | binding signal
TACATTCCTTTTTCTTTTCGTCGGCTGTCCTTCACCGGCCCGGAGTCACCTAGTGCAG | 9580 fluorescence intensity (a.u.)
GCCAGAAAACGAGCGCGACTTAACCTCTATGCGCTAATTACGGAGTCACCTAGTGCAG | 8170 fluorescence intensity (a.u.)
TGCGGTCTCGTGTTCAATCCTCAACACGCTAGCAATTTCTCGGAGTCACCTAGTGCAG | 8100 fluorescence intensity (a.u.)
CCGGTTGCCTGCTGTGCGCCTATCAGATATTCAAGTTAATCGGAGTCACCTAGTGCAG | 8410 fluorescence intensity (a.u.)
TCCCACCCCGCATTGCCATTTCCAGCTGTTGTTCTTGATTCGGAGTCACCTAGTGCAG | 10200 fluorescence intensity (a.u.)
AAGGTGGGGTCATCATAAATATTTTTTAAGTGAAAATTTTCGGAGTCACCTAGTGCAG | 9840 fluorescence intensity (a.u.)
CCAAGCACAGGTACTATTTGTGTTTGTTGACTTTATACTTCGGAGTCACCTAGTGCAG | 8690 fluorescence intensity (a.u.)
ACCAACCACTGAATGTTTGTTTTGCTTGTTTCATTTTTTTCGGAGTCACCTAGTGCAG | 9980 fluorescence intensity (a.u.)
TTCCTTTTTTTACGTGGCAACAGTTAGGGGTGGGCATTCGCGGAGTCACCTAGTGCAG | 18400 fluorescence intensity (a.u.)
GTTAAACTAATTTGAATTTGTTAGTACAGTTTGCATTTCACGGAGTCACCTAGTGCAG | 8160 fluorescence intensity (a.u.)
TCTGGTTTTGTGGTTTTGTGGTTAGGGGATGATTTTGTAACGGAGTCACCTAGTGCAG | 12800 fluorescence intensity (a.u.)
GGACTGCTCCACCATTTTTAGTCCCGGTTGGTAATACCAACGGAGTCACCTAGTGCAG | 8570 fluorescence intensity (a.u.)
ATTAATTGTTGTACATTATAAATTTTCCCTTGCATGTTTCCGGAGTCACCTAGTGCAG | 10800 fluorescence intensity (a.u.)
GCTAGCCGATTGGTTTATACTGGACTATATTATTGTTATACGGAGTCACCTAGTGCAG | 9380 fluorescence intensity (a.u.)
GAATTACCATTTGTGCATATAATTCTGGCGGGGTAGTTTTCGGAGTCACCTAGTGCAG | 11000 fluorescence intensity (a.u.)
GCACACATACACATACTGACAATGATGAGTTGATGACACACGGAGTCACCTAGTGCAG | 8500 fluorescence intensity (a.u.)
TGTGCCTATGGAATACTGTTAAGTGGTTTTTCTATTTAATCGGAGTCACCTAGTGCAG | 8540 fluorescence intensity (a.u.)
TTAGATTTCTTCACCTTCTTGGAGCTCGCGAGCTCGTCGGCGGAGTCACCTAGTGCAG | 9670 fluorescence intensity (a.u.)
TTCTTTTTTTTTTCTTCCATTCCCCTGGCAAATGTCTCCACGGAGTCACCTAGTGCAG | 8340 fluorescence intensity (a.u.)
AGAGGAGGAAGGTGGGAGCAGCTAGATTGGAAGTGGGCAACGGAGTCACCTAGTGCAG | 8360 fluorescence intensity (a.u.)
CCATGCCCTACCTGCCGCGCGCCTAGGGTTTCGCGAGGATCGGAGTCACCTAGTGCAG | 8030 fluorescence intensity (a.u.)

Sequence | binding signal
CATAGCCCGTCACCACCACAGATATGCAGTGCACACACATCGGAGTCACCTAGTGCAG | 8050 fluorescence intensity (a.u.)
ACCTGGTCCCACTTGTCATACACACAGTACGTCTTGGAATCGGAGTCACCTAGTGCAG | 9100 fluorescence intensity (a.u.)
GCCTCTTTTTTGTCGCTCTCACTGTCTCACACCTACACGTCGGAGTCACCTAGTGCAG | 16400 fluorescence intensity (a.u.)
TTAATTTCTGGTCCTATTTGTCATATACACATCGCGCCTTCGGAGTCACCTAGTGCAG | 8770 fluorescence intensity (a.u.)
CCATAGTTAGCTTCATTATTTTACTGCTAGCTTCATTTATCGGAGTCACCTAGTGCAG | 11700 fluorescence intensity (a.u.)
TCGTCGTAGCCACCACACCGCCCACACACCCACACCGCCGCGGAGTCACCTAGTGCAG | 9580 fluorescence intensity (a.u.)
TTGCACCCTTTTGTTTGCGCTTGAATTGACTTCTTTTTTGCGGAGTCACCTAGTGCAG | 8200 fluorescence intensity (a.u.)
GTATTCCTACTTGAACTCTTCTTTTACTTTATTTTTCTAACGGAGTCACCTAGTGCAG | 10600 fluorescence intensity (a.u.)
TATCATGTGTTCGTATGTCGTCATCTGGCATGTCTTAGGTCGGAGTCACCTAGTGCAG | 10500 fluorescence intensity (a.u.)
CGCCGGCCCTTTTACTTCCCTTTGTTTTAAGGCCCACAACCGGAGTCACCTAGTGCAG | 9130 fluorescence intensity (a.u.)
AGCAGCACACTATCCATTCCAACTTCGAAGCGCTCACTCTCGGAGTCACCTAGTGCAG | 8210 fluorescence intensity (a.u.)
GGTTGTCTGATTAATTCCTCTTCTCCGACCGGCTCGCTCACGGAGTCACCTAGTGCAG | 8490 fluorescence intensity (a.u.)
CCAACCATGTCGCTATCTTCCATTCGTCTCCACGTCCAGACGGAGTCACCTAGTGCAG | 8280 fluorescence intensity (a.u.)
TGCAAAAAGACGGTCACACATCCTTTTCTTCCCCGTGAACCGGAGTCACCTAGTGCAG | 8850 fluorescence intensity (a.u.)
CCACTCGCTCTCCGTTCACCACTCCAAACGCGTAGCGCTACGGAGTCACCTAGTGCAG | 10700 fluorescence intensity (a.u.)
GCACAAGTTGCAAATTACTACTACTAGTTCGCCAGTCACACGGAGTCACCTAGTGCAG | 8110 fluorescence intensity (a.u.)
CACCACGATTTGTTCCTTCCATGCCGCGGTTTCTTCTCTTCGGAGTCACCTAGTGCAG | 9150 fluorescence intensity (a.u.)
TTCTCGGACATGCCAACACCATAGGCCCACCGGCCCGCATCGGAGTCACCTAGTGCAG | 8650 fluorescence intensity (a.u.)
AGCTCATCTAGTAGCCGCTTCTTGCATTCTTCTTCTTCTCCGGAGTCACCTAGTGCAG | 11700 fluorescence intensity (a.u.)
TTGGCCGCTTCACCTGAATCTAATCTTTTGTTAATTAACCCGGAGTCACCTAGTGCAG | 8070 fluorescence intensity (a.u.)
TCTGGGTGAATACTGCTAGTTTTCTATGGGGAGGTGGGGACGGAGTCACCTAGTGCAG | 12600 fluorescence intensity (a.u.)

Individual results from the results shown:
binding signal, GCCAGAAAACGAGCGCGACTTAACCTCTATGCGCTAATTACGGAGTCACCTAGTGCAG reads 8170 fluorescence intensity (a.u.)
binding signal, AGAGGAGGAAGGTGGGAGCAGCTAGATTGGAAGTGGGCAACGGAGTCACCTAGTGCAG reads 8360 fluorescence intensity (a.u.)
binding signal, GAATTACCATTTGTGCATATAATTCTGGCGGGGTAGTTTTCGGAGTCACCTAGTGCAG reads 11000 fluorescence intensity (a.u.)
binding signal, CGGCATCTTCTCGTTCATTCTCATCCTCTTTAGCCCAAAGCGGAGTCACCTAGTGCAG reads 9060 fluorescence intensity (a.u.)
binding signal, CCATAGTTAGCTTCATTATTTTACTGCTAGCTTCATTTATCGGAGTCACCTAGTGCAG reads 11700 fluorescence intensity (a.u.)
binding signal, AACAGTCACTGACACGTGGGCTCCAGCATTACCTGTCCCCCGGAGTCACCTAGTGCAG reads 8200 fluorescence intensity (a.u.)
binding signal, GCCTCTTTTTTGTCGCTCTCACTGTCTCACACCTACACGTCGGAGTCACCTAGTGCAG reads 16400 fluorescence intensity (a.u.)

More entries

Sequence | binding signal
TGAGACTGGGACTGTGGTTGAGGGGTTATTTGGCTAGTTCCGGAGTCACCTAGTGCAG | 10400 fluorescence intensity (a.u.)
TGTGCTACCTGTAGCTGCAGGAATGACCTTTGACTTTCTTCGGAGTCACCTAGTGCAG | 10400 fluorescence intensity (a.u.)
GGTCTTTAGGTTAAGGGTGGTTGTGCCTTATATTTTGGAACGGAGTCACCTAGTGCAG | 8580 fluorescence intensity (a.u.)
TCCGCATCCCCATCGTTCGCACACCCTGTTTTTTTTTAGCCGGAGTCACCTAGTGCAG | 11200 fluorescence intensity (a.u.)
GAGTCGGACCATCGTTGTCTCGTTCTCCTCTTCTTCCGTCCGGAGTCACCTAGTGCAG | 8380 fluorescence intensity (a.u.)
ATTTTGAGTTTTTACTTGTAACGTTTGACCACTTGTCTTACGGAGTCACCTAGTGCAG | 8620 fluorescence intensity (a.u.)
GCTAGACACAGGCAACCAAACACACCCTAACACTCACTGTCGGAGTCACCTAGTGCAG | 9290 fluorescence intensity (a.u.)
CACACGTCGGTGACAATCTCGTTTCTTCTTCTTCTCCGCCCGGAGTCACCTAGTGCAG | 8420 fluorescence intensity (a.u.)
CATCGCTGGTTTAATGGATCTTTTCTCACAATCCGTTAGTCGGAGTCACCTAGTGCAG | 8310 fluorescence intensity (a.u.)
CCTCCGCGGCCGTCACCGATCTCATCCGCCGCCGACGATGCGGAGTCACCTAGTGCAG | 8090 fluorescence intensity (a.u.)
TGGCATAATTACATGCAAGCGTGAATCTTTTGTTCTATCTCGGAGTCACCTAGTGCAG | 8230 fluorescence intensity (a.u.)
TTGAATCGATTCCCTTGCCTCGCCTCGCTGTTGTCGCCGACGGAGTCACCTAGTGCAG | 8280 fluorescence intensity (a.u.)
CTCCTGCCGCCATCCGTCGCGTCTCCGACCATCGTCACCACGGAGTCACCTAGTGCAG | 14700 fluorescence intensity (a.u.)
TGGTGTTACTTTGAATTTGAGGATTTGGGGTTTGATTTAGCGGAGTCACCTAGTGCAG | 9690 fluorescence intensity (a.u.)
ATTTTCTGCTGTTGCTAGCCTTTTCTACACATTGCACCATCGGAGTCACCTAGTGCAG | 8920 fluorescence intensity (a.u.)
CCGACCCACCTCCGCCTCCGAGCCACCGTCCTCACGCACGCGGAGTCACCTAGTGCAG | 12000 fluorescence intensity (a.u.)
CTTTTGGTCTTCCCTTTCTTTTCTTCTTCTTCTTCTTCTTCGGAGTCACCTAGTGCAG | 10400 fluorescence intensity (a.u.)
CATCACTGGGTTCTTGATTTGTTTCGAGATCTTTTGTTTGCGGAGTCACCTAGTGCAG | 8100 fluorescence intensity (a.u.)
TTTTCGCATCACTGTCCTCTCTCATCTAAACCCTAGCCACCGGAGTCACCTAGTGCAG | 8120 fluorescence intensity (a.u.)
TTTTTCTGTGTCGCAATCTCTTCTTCCTCCTGTGTATTATCGGAGTCACCTAGTGCAG | 9400 fluorescence intensity (a.u.)
GACCATTCCTATGTTTTTTCATGTGTTTTGCAATCCTTTGCGGAGTCACCTAGTGCAG | 9870 fluorescence intensity (a.u.)
